# Library screen at single concentrations

The chains behind the UniProt entries cited, without tags or fusion partners. Residues count along the entry.
UniProt I6X8D2, whole entry: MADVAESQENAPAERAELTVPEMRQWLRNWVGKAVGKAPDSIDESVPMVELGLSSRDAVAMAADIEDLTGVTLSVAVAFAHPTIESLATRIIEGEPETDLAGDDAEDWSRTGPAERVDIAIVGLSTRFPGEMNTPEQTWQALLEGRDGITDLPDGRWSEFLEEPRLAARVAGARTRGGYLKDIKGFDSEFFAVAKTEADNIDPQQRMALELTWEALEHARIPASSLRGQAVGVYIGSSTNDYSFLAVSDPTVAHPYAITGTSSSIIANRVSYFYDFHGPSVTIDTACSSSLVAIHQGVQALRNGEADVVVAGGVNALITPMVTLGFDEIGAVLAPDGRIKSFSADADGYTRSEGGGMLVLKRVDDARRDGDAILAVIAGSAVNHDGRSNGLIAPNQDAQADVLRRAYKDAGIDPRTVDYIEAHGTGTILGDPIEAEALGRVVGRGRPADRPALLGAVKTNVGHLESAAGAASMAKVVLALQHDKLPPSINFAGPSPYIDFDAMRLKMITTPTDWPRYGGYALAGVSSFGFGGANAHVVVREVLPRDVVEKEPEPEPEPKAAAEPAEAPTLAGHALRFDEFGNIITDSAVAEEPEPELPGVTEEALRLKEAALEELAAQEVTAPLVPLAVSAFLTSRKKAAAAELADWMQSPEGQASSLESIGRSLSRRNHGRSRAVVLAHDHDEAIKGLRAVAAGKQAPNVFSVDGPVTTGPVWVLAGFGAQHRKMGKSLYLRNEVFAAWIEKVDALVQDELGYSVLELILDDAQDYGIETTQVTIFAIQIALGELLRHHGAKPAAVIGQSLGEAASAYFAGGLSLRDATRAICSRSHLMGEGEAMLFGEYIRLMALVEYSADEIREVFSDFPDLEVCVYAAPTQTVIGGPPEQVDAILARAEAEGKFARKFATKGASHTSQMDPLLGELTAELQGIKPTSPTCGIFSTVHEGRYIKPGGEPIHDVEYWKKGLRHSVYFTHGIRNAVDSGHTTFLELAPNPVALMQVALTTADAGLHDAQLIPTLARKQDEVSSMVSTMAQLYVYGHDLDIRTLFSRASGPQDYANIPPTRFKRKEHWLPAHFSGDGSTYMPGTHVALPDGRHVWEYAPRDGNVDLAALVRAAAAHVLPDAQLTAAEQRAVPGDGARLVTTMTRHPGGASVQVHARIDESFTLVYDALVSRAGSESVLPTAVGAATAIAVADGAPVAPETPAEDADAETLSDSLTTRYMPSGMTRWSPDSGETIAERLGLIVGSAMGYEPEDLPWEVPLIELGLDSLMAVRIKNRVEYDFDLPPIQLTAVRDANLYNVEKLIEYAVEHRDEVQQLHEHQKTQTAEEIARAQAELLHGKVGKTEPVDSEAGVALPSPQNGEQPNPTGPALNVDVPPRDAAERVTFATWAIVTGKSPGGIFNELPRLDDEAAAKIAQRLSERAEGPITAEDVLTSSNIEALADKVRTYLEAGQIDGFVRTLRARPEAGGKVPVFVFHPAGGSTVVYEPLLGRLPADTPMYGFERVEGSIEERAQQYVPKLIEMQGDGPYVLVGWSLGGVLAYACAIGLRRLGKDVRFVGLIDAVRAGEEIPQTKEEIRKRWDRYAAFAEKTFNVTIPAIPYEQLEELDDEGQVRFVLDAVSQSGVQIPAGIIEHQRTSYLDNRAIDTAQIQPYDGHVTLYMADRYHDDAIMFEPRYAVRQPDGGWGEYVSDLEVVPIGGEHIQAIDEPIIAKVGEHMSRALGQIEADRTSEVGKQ
UniProt P9WFT3, whole entry: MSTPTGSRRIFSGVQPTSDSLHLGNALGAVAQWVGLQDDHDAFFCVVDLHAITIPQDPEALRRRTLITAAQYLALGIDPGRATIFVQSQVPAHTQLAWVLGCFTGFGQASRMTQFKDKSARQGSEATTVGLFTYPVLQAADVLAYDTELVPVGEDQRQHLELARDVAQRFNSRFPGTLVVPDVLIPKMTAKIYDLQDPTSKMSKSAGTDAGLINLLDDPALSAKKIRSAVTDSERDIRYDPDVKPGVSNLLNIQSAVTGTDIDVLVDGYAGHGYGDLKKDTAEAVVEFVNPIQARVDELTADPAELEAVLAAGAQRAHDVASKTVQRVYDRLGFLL
UniProt P9WNZ1, whole entry: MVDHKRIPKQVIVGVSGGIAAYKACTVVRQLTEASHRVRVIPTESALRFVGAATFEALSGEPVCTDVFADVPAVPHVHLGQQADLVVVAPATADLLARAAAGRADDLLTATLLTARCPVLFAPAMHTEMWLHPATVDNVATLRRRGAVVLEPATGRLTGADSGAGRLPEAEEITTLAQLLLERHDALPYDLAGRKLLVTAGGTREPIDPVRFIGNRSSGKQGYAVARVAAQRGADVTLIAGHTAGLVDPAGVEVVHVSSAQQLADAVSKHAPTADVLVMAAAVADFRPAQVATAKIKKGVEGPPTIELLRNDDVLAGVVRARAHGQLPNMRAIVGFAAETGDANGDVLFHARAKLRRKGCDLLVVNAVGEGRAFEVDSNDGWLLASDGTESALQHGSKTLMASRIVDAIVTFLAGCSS
UniProt Q8IDJ8, 1-583: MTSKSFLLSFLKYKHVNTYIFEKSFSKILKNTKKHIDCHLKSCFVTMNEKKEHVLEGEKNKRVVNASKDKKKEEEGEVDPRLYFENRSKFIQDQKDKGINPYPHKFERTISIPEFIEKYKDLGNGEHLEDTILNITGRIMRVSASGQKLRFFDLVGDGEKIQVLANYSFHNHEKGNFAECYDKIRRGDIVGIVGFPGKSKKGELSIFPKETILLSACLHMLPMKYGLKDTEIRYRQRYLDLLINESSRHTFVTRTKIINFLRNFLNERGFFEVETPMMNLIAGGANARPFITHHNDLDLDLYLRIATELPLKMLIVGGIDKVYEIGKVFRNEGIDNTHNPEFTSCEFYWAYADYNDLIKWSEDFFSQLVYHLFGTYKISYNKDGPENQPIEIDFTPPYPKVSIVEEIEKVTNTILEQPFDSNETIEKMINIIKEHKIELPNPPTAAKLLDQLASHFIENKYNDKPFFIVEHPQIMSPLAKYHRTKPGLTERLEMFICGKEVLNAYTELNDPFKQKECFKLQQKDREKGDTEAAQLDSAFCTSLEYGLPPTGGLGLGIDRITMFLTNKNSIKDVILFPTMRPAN

Results are given as percent effect. How 0% and 100% were set is not recorded. Most values in the screen are low, and negative values occur. Compounds were drawn at random from those tested, without regard to their results. A dash means the value is not listed here; it may have been measured.

Pks13 thioesterase: 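Enzyme assay of the thioesterase domain of polyketide synthase 13; the read-out is not stated. Target: Polyketide synthase Pks13, Mycobacterium tuberculosis (UniProt I6X8D2). Compounds at 30 µM. Higher reads as stronger inhibition (inferred from which compounds were picked for retests). Of about 67,000 compounds tested this way, about 300 (0.46%) reached 50% or more in at least one test.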
MtTrpRS: 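Tryptophan-tRNA ligase, Mycobacterium tuberculosis (UniProt P9WFT3). Enzyme assay of tryptophanyl-tRNA synthetase; the read-out is not stated. Concentration: 10 µM. Direction is not recorded; retested compounds ran higher, which suggests that high means inhibition. Of about 65,000 compounds tested this way, about 64 (0.098%) reached 50% or more in at least one test.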
CoaBC: 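Coenzyme A biosynthesis protein CoaBC, Mycobacterium tuberculosis (UniProt P9WNZ1). Enzyme assay of CoaBC with a phosphate dye (Biomol Green) read at 650 nm. Concentration: 30 µM. Higher reads as stronger inhibition, judged from the few compounds that gave an IC50. Most strong results did not repeat in a second test. Size under these conditions: about 67,000 compounds, about 40 of them at 50% or above in at least one test.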
PfKRS1: 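Enzyme assay of the cytosolic lysyl-tRNA synthetase in 384-well plates, read by luminescence. Target: Lysine-tRNA ligase, Plasmodium falciparum 3D7 (UniProt Q8IDJ8). Compounds at 30 µM. Higher reads as stronger inhibition, judged from the few compounds that gave an IC50. Size under these conditions: about 69,000 compounds, about 49 of them at 50% or above in at least one test.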

| structure | Pks13 thioesterase | MtTrpRS | CoaBC | PfKRS1 |
|---|---|---|---|---|
| `COCCNc1ncnc2c1CCN(C(=O)CC1CCC(=O)N1)CC2` (stereo unspecified) | -18.86% | -0.4082% | 3.145% | 2.398% |
| `COc1cccc(CNc2ccc(F)c(Cl)c2)c1O` | 39.07% | -0.0809% | -4.948% | 1.445% |
| `Cc1ccc2cc(CNCCCO)c(=O)[nH]c2c1` | -21.66% | -3.261% | -1.111% | 4.8% |
| `CCOCC(=O)N1CC[C@H]2O[C@@H](C)C[C@H]2C1` | 3.765% | -5.317% | 0% | -1.724% |
| `CC1CCN(C(=O)C(C)N2CCc3[nH]nc(C(F)(F)F)c3C2)CC1` (stereo unspecified) | -8.637% | -3.939% | 0% | 5.799% |
| `CCn1c(C)cc(C(=O)N2C[C@@H](C(=O)O)[C@H](c3ccccc3)C2)c1C` | -1.314% | -1.952% | 2.836% | 1.499% |
| `CCCc1cc(C(=O)NCCN2CCCS2(=O)=O)[nH]n1` | -20.78% | -1.976% | 2.302% | 1.001% |
| `O=C(c1ccccc1)N1CCCC2(CCN2Cc2cccc(F)c2)C1` (stereo unspecified) | -23.81% | - | 2.723% | 5.084% |
| `CCn1cc(NC(=O)c2cc(C)nc(N3CCOCC3)n2)cn1` | -4.683% | -3.238% | -10.16% | 3.04% |
| `CC(C)(C)CN(CCO)C(=O)Nc1cccc(N2CCNC2=O)c1` | -6.974% | 1.235% | -5.109% | 1.293% |
| `COCCOC[C@]1(CNCc2ccc(OC)cc2)C[C@@H](O)[C@@H](O)C1` | -24.68% | -2.334% | -17.38% | 7.008% |
| `CN(Cc1ccco1)C(=O)CN1CCOC(Cn2cccn2)C1` (stereo unspecified) | -8.703% | -3.578% | -9.383% | 0.09379% |
| `O=C(NCC1CC1)[C@@H]1C[C@@H]2CCN(Cc3ccoc3)C[C@@H]2O1` | -28.95% | -5.231% | 12.95% | 2.264% |
| `Cc1ccc(CNC(=O)NCc2csc(C)n2)cn1` | -21.42% | 2.439% | 4.113% | 6.506% |
| `Cn1c(Cn2ccnc2)nnc1C1CCN(C(=O)c2ccncc2)CC1` | -22.47% | -1.119% | 11.47% | 5.037% |
| `Cc1cc(NCc2ccc(CO)cc2)n2nc(C)cc2n1` | -34.52% | 0.8653% | 4.342% | 8.168% |
| `CN(C)CCN1CCCC12CCCN(Cc1ccoc1)C2` (stereo unspecified) | 4.673% | 11.21% | -49.26% | -3.157% |
| `CN(CC1COCCO1)c1ncnc2cc(F)ccc12` (stereo unspecified) | -5.634% | -1.22% | -2.751% | -5.11% |
| `COc1ccc(C(C)Nc2ncc(C(N)=O)cc2Cl)cc1OC` (stereo unspecified) | -22.89% | 0% | 7.323% | 2.153% |
| `COc1ccc(NC(=O)CCC(C)C)c(N2CCN(C(C)=O)CC2)n1` | -10.07% | 1.398% | 5.556% | 3.151% |
| `COC1CN(C(=O)Cc2cccs2)CCC(=O)N(C)c2ccccc21` (stereo unspecified) | 8.78% | - | 2.179% | 6.309% |
| `Cc1cc(-c2ccc(C(C)N3CCOCC3)cc2)cnc1N` (stereo unspecified) | -28.68% | -2.102% | 0.3226% | 1.865% |
| `COCCn1c2c(ccc1=O)CCN(C(=O)CC1CC1)CC2` | 0.123% | - | 1.576% | 2.807% |
| `O=C(Cc1ccccn1)N1CCN2C[C@H](OCCN3CCCC3)C[C@H]2C1` | -45.68% | 9.382% | -2.25% | -3.247% |
| `COCCCNC(=O)CN(C)C(=O)c1ccc(-n2cccc2)cc1O` | -21.86% | 5.322% | 4.608% | -0.6997% |
| `CC(=O)N[C@@H]1CN(C(=O)c2cccc(C)c2)C[C@H]1O` | -6.021% | 2.937% | -21.55% | 1.152% |
| `CC(=O)N1[C@H](CN(C)C)C[C@@H]2CN(C(=O)c3ccsc3)CC[C@@H]21` | -27.72% | -8.285% | 3.99% | 7.404% |
| `Fc1ccc(CN2CCC3(CC2)CC(c2cccnc2)CO3)cc1` (stereo unspecified) | -20.39% | -4.628% | -3.704% | 4.769% |
| `Cc1cc2n(n1)CC(CNCc1ccc(Oc3ccccc3)nc1)CN2` (stereo unspecified) | -46.42% | 19.4% | 14.83% | -1.529% |
| `O=C(C1=CCCC1)N1CCC2(CC1)CC(Oc1cccnc1)CO2` (stereo unspecified) | -1.187% | -2.596% | -5.732% | 3.827% |
| `Cn1ccc(C(=O)N2CCCC(Cc3cccc4cccnc34)C2)n1` (stereo unspecified) | -22.53% | - | 0.9709% | -0.6761% |
| `O=C(c1cc(-n2cccc2)ccc1Cl)N1CCC2(CC1)OCCO2` | -38% | 2.436% | 2.024% | 7.835% |
| `CC(C)CNC(=O)C1(Cc2ccccc2-c2ccccc2)CCNC1` (stereo unspecified) | -1.382% | -1.681% | 9.246% | -0.05376% |
| `CC(C)c1nn(C)c(Cl)c1CNC1CCOc2ccccc21` (stereo unspecified) | -2.139% | -1.263% | 2.698% | 2.915% |
| `O=C(CNCCn1cccn1)NCC1(c2ccccc2)CCC1` | -13.09% | -5.016% | 0.7833% | -0.447% |
| `CC(O)(CNC(=O)c1c(F)cccc1Cl)C1CC1` (stereo unspecified) | -3.444% | -1.242% | 1.781% | 3.25% |
| `Cc1ccccc1-c1cc(NC(=O)CC(C)C)n(CCO)n1` | -26.84% | -1.589% | 1.484% | 1.126% |
| `COc1ncc(NCc2ccc(C#N)cc2)cc1C(N)=O` | -16.96% | -3.374% | -35.03% | 4.249% |
| `CCNC(=O)CCS(=O)(=O)Cc1ccn(-c2cccc(F)c2)n1` | -4.389% | 12.85% | 8.861% | 4.46% |
| `Fc1cccc(C2(CNC3CCCNC3)CCOCC2)c1` (stereo unspecified) | -13.09% | 0.571% | -4.474% | 1.372% |
| `CC(C)c1ncc(CN2C[C@@H](CN3CCCCC3)[C@@H](CO)C2)cn1` | -8.748% | -2.624% | 8.669% | 4.514% |
| `Cc1cccc(NC(=O)N2CCCn3cnc(CN4CCCC4)c3C2)c1` | -11.03% | -0.1876% | -25.88% | 8.466% |
| `CC(C)(C)c1ccn(C2(C(=O)O)CCN(c3ccnc(N)n3)CC2)n1` | -13.5% | 2.801% | -0.7653% | 9.616% |
| `O=c1cc(-c2ccc(F)cc2)nc2n1CCCCC2` | 15.41% | -4.341% | -1.337% | -1.789% |
| `Cc1cc(CN2CCC(CNS(=O)(=O)c3ccccc3F)CC2)c(C)o1` | -22.2% | 2.75% | 7.071% | 4.733% |
| `Cc1cccc(C(C(=O)NCC2(Cn3nc(C)cc3C)CC2)N(C)C)c1` (stereo unspecified) | -7.168% | 2.321% | - | 1.132% |
| `NC(=O)C1=NC2=NS(=O)(=O)c3ccccc3N2N1Cc1ccc(Br)cc1` | -14.83% | 0.4968% | -2.091% | 5.61% |
| `CCOC1CC2(CCN(C(=O)COC)CC2)c2cc(F)ccc21` (stereo unspecified) | 12.1% | -1.647% | - | 1.812% |
| `N#Cc1nc(COc2ccc3c(c2)OCO3)oc1N1CCCCCC1` | -6.08% | 3.711% | -2.778% | 2.643% |
| `Cc1oc(-c2ccsc2)nc1CN1CC[C@@H]2CCCC[C@H]2C1` | 4.652% | 6.539% | -0.6173% | -6.018% |
| `FC(F)(F)c1nnc2n1CCN(c1nc(C3CC3)ns1)C2` | -38.25% | 2.319% | 5.782% | -2.44% |
| `O=C([C@H]1C[C@H]2OCC[C@H]2N(Cc2ccoc2)C1)N1CCCCO1` | -8.583% | -3.284% | 5% | -2.351% |
| `CCc1nc(C)c(C(=O)NCCNC(=O)Cc2cccc(F)c2)s1` | 14.75% | -6.671% | 5.357% | 3.058% |
| `COc1cc(CNC(=O)N(Cc2ccc(F)cc2F)C2CC2)ccn1` | -16.2% | -4.191% | 4.592% | 0.58% |
| `Cc1cn2c(n1)CCC(NC(=O)CCOc1cccc(F)c1)C2` (stereo unspecified) | -7.835% | 4.562% | 2.479% | 6.336% |
| `CCN(Cc1cnn(C)c1)S(=O)(=O)c1ccc(NC(=O)C(C)(C)C)cc1` | -11.93% | -2.29% | -1.091% | 6.693% |
| `NCc1n[nH]c(-c2cccc(F)c2)n1` | -36.81% | -0.5833% | 7.744% | 3.504% |
| `CC(=O)N1CCC2(CC1)COC(COCc1ccccn1)C2` (stereo unspecified) | 18.2% | -0.5947% | -0.4673% | 7.109% |
| `Cc1noc([C@H]2C[C@H]3OCC[C@H]3N(Cc3ccncc3)C2)n1` | -15.37% | -3.374% | 2.538% | 0.418% |
| `CN(C)C(=O)Cc1nc(CN2CCCCC2Cn2cccn2)cs1` (stereo unspecified) | -39.18% | 8.157% | 0.4049% | -8.462% |
| `O=C(COc1coc(CN2CCCC2)cc1=O)Nc1cc(Cl)ccc1Cl` | -14.93% | 3.571% | -0.7576% | 3.71% |
| `Cc1cc(C)n(-c2ccc(C(=O)N3CCCC3c3cnn(C)c3)cc2)n1` (stereo unspecified) | -12.75% | 0.6937% | 8.554% | 1.201% |
| `Cc1cn2nc(N3CCCC3Cn3cncn3)sc2n1` (stereo unspecified) | 1.077% | 0.9893% | 14.95% | 1.965% |
| `CCOCCCC(=O)NS(=O)(=O)c1ccc(C)s1` | -0.7709% | 1.715% | -3.361% | -4.443% |
| `Cn1cccc1C(=O)N[C@@H]1CN(CC2CC2)[C@@H]2COC[C@@H]21` | -5.181% | 0.1049% | 1.904% | 2.919% |
| `CNC(=O)CNC(=O)c1ccc(-c2scnc2C)nc1` | - | -11.19% | 3.425% | 0.8308% |
| `Cc1nnn2c1COC(CNCc1nccs1)C2` (stereo unspecified) | -8.914% | 0.2513% | -0.6369% | 5.899% |
| `CCc1nnc(CS(=O)(=O)c2ccc(C)c(C)c2)n1C` | -7.09% | -2.78% | 0.3501% | -3.664% |

From ChEMBL document CHEMBL3988442, “University of Dundee, Small-Polar-MMV Screening Library” (2021).